In the experiment the test system is in vitro plaque. The experiment in a line: in vitro artificial plaque assay on saliva-coated aluminium plummets (Tests 1, 3, 4 and general statements). The experiment is classed as cell-based. The note with it: pH 4.1, read-out: % Reduction. The protocol:
An in vitro test was used in the Tests described herein for examining and effects of chemotherapeutic agents on plaque, and was carried out in accordance with the test reported in the Journal of Dental Research, Vol. 55, February 1976, page B286, by R T Evans, P J Baker, R A Coburn and R J Genco. An assay system for producing artificial plaque was used to screen antiplaque agents rapidly under conditions which simulated those found in the oral cavity.
The in vitro plaque was formed at 37°C on uniformly- sized aluminium plummets which were first coated with saliva. The plummets were then placed in a growth medium inoculated with clinical plaque samples. After seven hours the plummets were suspended overnight in a 25;0 saliva mixture. On the second day, the plummets were immersed in a 50% saliva - 50% test compound mixture for one minute, placed in the growth medium for seven hours, retreated with the test mixture and suspended in 25% saliva overnight. The plummets were treated again on the third day and incubated in the growth medium for three hcurs. The plaques were removed from the plummets by donication into approximately six millilitres of buffer and quantitated by optical density (O.D.) in a Beckman DU spectrophotometer at 570 nm.
Positive controls were included to determine relative activity. Comparisons of antiplaque activity were then made within a given experiment. […]

As for `CCCCCCCCCCCCCCCC[n+]1ccccc1` [CPC, cetyl pyridinium chloride, reference compound], the inhibition at 0.04 % was 26.9%.
